Taken from: PubChem BioAssay AID1159578 (Peter MacCallum Cancer Centre, 2015)
Assay: 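siRNA pools altering how lymphatic endothelial cells close a scratch wound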 (primary screen). Cells: human lymphatic endothelial cells. Reagent: siRNA pool against human genes, 40 nM. Timing: 48 h after transfection. Measurement: 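Cells stained with dye and imaged after a scratch; covered wound area and nuclei counted, duplicates averaged, migration set against mock wells and turned into a robust z-score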. Direction: migration robust z-score: higher = faster migration into the scratch; nuclei per well: higher = more cells in the well. Hit rule: 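Migration changed when robust z exceeds 2 or falls below -2 and mean nuclei number is at least 3300; otherwise not called changed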. Meaning of the calls: active = migration changed; inactive = no migration change, or too few cells.
The deposit covers about 18,000 reagents; this is a part drawn at random. About 1,030 of all reagents (5.7%) count as active. 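Inactive calls also include pools with fewer than 3300 nuclei, whose migration was not assessed.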 The raw values are shown without normalisation. A number with no mark means an inactive call. Further read-outs or replicates are left out here.

| gene symbol | migration robust z-score | migration class with cell-count check | nuclei per well, duplicate mean |
| --- | --- | --- | --- |
| MED15 | 0.81 | migration z between -2 and 2; enough cells | 5190 |
| BANF1 | -1.53 | migration z between -2 and 2; enough cells | 5856 |
| PRAME | -1.14 | migration z between -2 and 2; enough cells | 5520 |
| OR8K3 | 2.79 (active) | migration z above 2; enough cells | 6318 |
| NARS2 | -1.03 | migration z between -2 and 2; enough cells | 6241 |
| PLEKHO2 | -1.36 | migration z between -2 and 2; enough cells | 5468 |
| FKBP4 | -0.16 | migration z between -2 and 2; enough cells | 4626 |
| USP2 | 0.39 | migration z between -2 and 2; enough cells | 4510 |
| YIF1A | 0.13 | migration z between -2 and 2; enough cells | 5927 |
| RHO | 0.28 | migration z between -2 and 2; enough cells | 6948 |
| CCM2L | -1.04 | migration z between -2 and 2; enough cells | 6333 |
| ZSCAN9 | 0.39 | migration z between -2 and 2; enough cells | 5267 |
| C1orf35 | -0.39 | migration z between -2 and 2; enough cells | 5274 |
| UBE2I | 0.31 | migration z between -2 and 2; enough cells | 5448 |
| FKTN | -1.53 | migration z between -2 and 2; enough cells | 5696 |
| MICB | 0.78 | migration z between -2 and 2; enough cells | 6874 |
| UPB1 | -0.39 | migration z between -2 and 2; enough cells | 6052 |
| NCOA6 | -0.73 | migration z between -2 and 2; enough cells | 4998 |
| SLC26A5 | -0.94 | under 3300 nuclei; migration not judged | 2796 |
| RTCA | 0.99 | migration z between -2 and 2; enough cells | 6011 |
| C4orf36 | 0.01 | migration z between -2 and 2; enough cells | 5063 |
| SLC25A16 | 0.68 | migration z between -2 and 2; enough cells | 4932 |
| GRIK2 | -0.24 | migration z between -2 and 2; enough cells | 5179 |
| CDCA2 | 0.11 | migration z between -2 and 2; enough cells | 6268 |
| PCDHGA7 | -0.66 | migration z between -2 and 2; enough cells | 5594 |
| MYF6 | -0.36 | migration z between -2 and 2; enough cells | 6162 |
| CYFIP2 | -1.77 | migration z between -2 and 2; enough cells | 5011 |
| CARMIL3 | -0.26 | migration z between -2 and 2; enough cells | 6678 |
| FUS | 0.8 | migration z between -2 and 2; enough cells | 4980 |
| ACSM3 | -0.5 | migration z between -2 and 2; enough cells | 5394 |
| SLC49A4 | 2.03 (active) | migration z above 2; enough cells | 7014 |
| STK32C | -0.36 | migration z between -2 and 2; enough cells | 3506 |
| PCDHGA1 | -0.22 | migration z between -2 and 2; enough cells | 5186 |
| FGFR2 | -1.5 | under 3300 nuclei; migration not judged | 2758 |
| RBM7 | -0.93 | migration z between -2 and 2; enough cells | 3790 |
| MRPL38 | -0.52 | migration z between -2 and 2; enough cells | 5623 |
| SLC5A7 | -0.29 | migration z between -2 and 2; enough cells | 5105 |
| LIME1 | -0.11 | migration z between -2 and 2; enough cells | 5791 |
| OR4C3 | 0.1 | migration z between -2 and 2; enough cells | 4584 |
| PHOSPHO1 | -0.66 | migration z between -2 and 2; enough cells | 6081 |
| KRTAP19-4 | -0.21 | migration z between -2 and 2; enough cells | 5003 |
| CCL19 | -0.06 | migration z between -2 and 2; enough cells | 5628 |
| TLN1 | 0.36 | migration z between -2 and 2; enough cells | 5328 |
| CX3CL1 | -0.08 | migration z between -2 and 2; enough cells | 7534 |
| NXPH2 | -0.89 | migration z between -2 and 2; enough cells | 4522 |
| IZUMO1 | -0.2 | migration z between -2 and 2; enough cells | 6028 |
| GRM7 | 0.62 | migration z between -2 and 2; enough cells | 6080 |
| CGAS | 0.27 | migration z between -2 and 2; enough cells | 4536 |
| ARFGEF3 | 0.14 | migration z between -2 and 2; enough cells | 5350 |
| PRKAR1B | -0.57 | migration z between -2 and 2; enough cells | 4827 |
| OR8K5 | 0.44 | migration z between -2 and 2; enough cells | 5674 |
| PAK1 | -2.49 | under 3300 nuclei; migration not judged | 3146 |
| MAX | 1.01 | migration z between -2 and 2; enough cells | 5828 |
| CARD19 | -0.32 | migration z between -2 and 2; enough cells | 5630 |
| PRR13 | 0.37 | migration z between -2 and 2; enough cells | 6442 |
| PIGN | 1.87 | migration z between -2 and 2; enough cells | 7316 |
| FBXO43 | -0.62 | migration z between -2 and 2; enough cells | 5417 |
